The data set in a line: general procedure: solution-phase peptide synthesis; HOBT/DIPEA; HATU/DIPEA; DIC; DCC. The settings on record: late stage modification step; for final HPLC purity: HPLC (220 nm) and LCMS.

For the substance “2,3-dibromomethylquinoxaline-6-carboxamidoethoxyethoxypropanoyl-Gly-Lys-PAB-MMAE”, the step yield is on record as 18.18% and the “final HPLC purity” value was “HPLC 96%”.

For the substance “4,5-dibromomethyltriazol-1-ylacetamidoethoxyethoxypropanoyl-Gly-Lys-PAB-MMAE”, the step yield is reported as 65.86% and the “final HPLC purity” value is listed as “HPLC 98%”.

Values taken from patent publication EP4759822 (dated 2025).
